Values from PubChem BioAssay AID1224830 (NIAID, 2016).
In all, the deposit lists about 18,000 reagents; this is an unselected part. About 2,900 of all reagents (16%) were called active. 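Calls are made per well; low scores hint the gene aids the LPS response, high scores that it dampens it.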 Entries without a mark were called inactive. Repeated entries: four replicate wells of each siRNA pool. No sequences are given here.

Screen: 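Host factors that control LPS-induced TNF expression in human macrophages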 (primary screen)
Cells: human THP-1 monocytic leukaemia cells, TNF dual-luciferase reporter clone, PMA-differentiated to macrophage-like cells
Reagents: siRNA pool against human genes, 50 nM
Time to read-out: LPS for 4 h, given about 3 days after siRNA transfection
Conditions: bacterial LPS (TLR4 ligand), 10 ng/ml
Read-out: 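TNF firefly reporter luminescence divided by renilla, normalised to the plate median, then turned into a robust z-score for each replicate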
Reading the numbers: TNF reporter robust z-score: higher = stronger TNF reporter response to LPS
Active means: 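Each well counts as active if its z-score is over 2.8 or under -1.5; controls are left without a call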

Knock-down of CHRNA5 (cholinergic receptor nicotinic alpha 5 subunit) gave: TNF reporter robust z-score -1.28.
After knock-down of CHRNA5 (cholinergic receptor nicotinic alpha 5 subunit) the results were TNF reporter robust z-score 0.16.
With knock-down of CHRNA5 (cholinergic receptor nicotinic alpha 5 subunit), the screen gave TNF reporter robust z-score 0.8.
After knock-down of CHRNA5 (cholinergic receptor nicotinic alpha 5 subunit), the screen gave TNF reporter robust z-score -1.06.
For CLCA2 (chloride channel accessory 2), the entry reads TNF reporter robust z-score -0.59.
Knock-down of CLCA2 (chloride channel accessory 2) came out at: TNF reporter robust z-score 0.2.
Depletion of CLCA2 (chloride channel accessory 2) came out at: TNF reporter robust z-score 0.17.
For CLCA2 (chloride channel accessory 2) the deposit lists TNF reporter robust z-score -0.02.
Against FMO5 (flavin containing dimethylaniline monoxygenase 5), the entry reads TNF reporter robust z-score -2.2 (active).
With knock-down of FMO5 (flavin containing dimethylaniline monoxygenase 5), the screen gave TNF reporter robust z-score -1.31.
With knock-down of FMO5 (flavin containing dimethylaniline monoxygenase 5) the results were TNF reporter robust z-score -1.35.
Depletion of FMO5 (flavin containing dimethylaniline monoxygenase 5) gave: TNF reporter robust z-score -0.28.
For LLGL2 (LLGL scribble cell polarity complex component 2), the entry reads TNF reporter robust z-score -0.63.
After knock-down of LLGL2 (LLGL scribble cell polarity complex component 2), the record shows TNF reporter robust z-score 0.38.
LLGL2 (LLGL scribble cell polarity complex component 2) scored TNF reporter robust z-score 0.89.
Knock-down of LLGL2 (LLGL scribble cell polarity complex component 2) gave: TNF reporter robust z-score 0.26.
With knock-down of SIX3 (SIX homeobox 3), the screen gave TNF reporter robust z-score 0.19.
SIX3 (SIX homeobox 3) showed TNF reporter robust z-score -0.25.
For SIX3 (SIX homeobox 3), the values are TNF reporter robust z-score -0.67.
After knock-down of SIX3 (SIX homeobox 3) the results were TNF reporter robust z-score -0.31.
After knock-down of SETD3 the results were TNF reporter robust z-score 0.32.
With knock-down of SETD3, the screen gave TNF reporter robust z-score 0.5.
Depletion of SETD3 resulted in: TNF reporter robust z-score -0.65.
Against SETD3 the deposit lists TNF reporter robust z-score -0.8.
Knock-down of CCL3L3 (C-C motif chemokine ligand 3 like 3) resulted in: TNF reporter robust z-score 0.37.
CCL3L3 (C-C motif chemokine ligand 3 like 3) gave TNF reporter robust z-score -0.25.
Against CCL3L3 (C-C motif chemokine ligand 3 like 3), the entry reads TNF reporter robust z-score -0.08.
Silencing of CCL3L3 (C-C motif chemokine ligand 3 like 3) gave: TNF reporter robust z-score -0.14.
For OR2A12 (olfactory receptor family 2 subfamily A member 12), the entry reads TNF reporter robust z-score -0.14.
OR2A12 (olfactory receptor family 2 subfamily A member 12) scored TNF reporter robust z-score 0.67.
After knock-down of OR2A12 (olfactory receptor family 2 subfamily A member 12) the results were TNF reporter robust z-score 0.16.
Knock-down of OR2A12 (olfactory receptor family 2 subfamily A member 12) came out at: TNF reporter robust z-score -0.34.
GARIN1B (golgi associated RAB2 interactor 1B) gave TNF reporter robust z-score 0.3.
GARIN1B (golgi associated RAB2 interactor 1B) showed TNF reporter robust z-score 1.17.
GARIN1B (golgi associated RAB2 interactor 1B) scored TNF reporter robust z-score 1.23.
After knock-down of GARIN1B (golgi associated RAB2 interactor 1B), the record shows TNF reporter robust z-score 1.43.
SMG1 showed TNF reporter robust z-score -1.12.
SMG1 scored TNF reporter robust z-score -1.64 (active).
Depletion of SMG1 came out at: TNF reporter robust z-score 0.02.
Against SMG1 the deposit lists TNF reporter robust z-score -0.49.
CRCT1 (cysteine rich C-terminal 1) gave TNF reporter robust z-score 2.76.
CRCT1 (cysteine rich C-terminal 1) scored TNF reporter robust z-score 3.83 (active).
CRCT1 (cysteine rich C-terminal 1) gave TNF reporter robust z-score 1.88.
CRCT1 (cysteine rich C-terminal 1) scored TNF reporter robust z-score 2.79.
After knock-down of PPFIBP1 (PPFIB scaffold protein 1), the screen gave TNF reporter robust z-score -1.49.
For PPFIBP1 (PPFIB scaffold protein 1), the entry reads TNF reporter robust z-score -0.65.
Silencing of PPFIBP1 (PPFIB scaffold protein 1) resulted in: TNF reporter robust z-score -0.33.
Against PPFIBP1 (PPFIB scaffold protein 1) the deposit lists TNF reporter robust z-score -0.47.

Active calls, among the entries above:
FMO5 (flavin containing dimethylaniline monoxygenase 5): TNF reporter robust z-score = -2.2 (active)
SMG1: TNF reporter robust z-score = -1.64 (active)
CRCT1 (cysteine rich C-terminal 1): TNF reporter robust z-score = 3.83 (active)
